These are yes or no findings as the source states them, for the method shown. Some binding calls cover weakened binding; strength is not graded here.
T1: proteasome assembly chaperone 4 (PAC4) (human) (UniProt Q5JS54)
T1 sequence: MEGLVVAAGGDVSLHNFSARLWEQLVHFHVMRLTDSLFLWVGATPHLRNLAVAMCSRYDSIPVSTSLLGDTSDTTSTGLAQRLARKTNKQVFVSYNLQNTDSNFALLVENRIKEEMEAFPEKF

The chains behind the UniProt entries cited, without tags or fusion partners.
UniProt Q9Y244: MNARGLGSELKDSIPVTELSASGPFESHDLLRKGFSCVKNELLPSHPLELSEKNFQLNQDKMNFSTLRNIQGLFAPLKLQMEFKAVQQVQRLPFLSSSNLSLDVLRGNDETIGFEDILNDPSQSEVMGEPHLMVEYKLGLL
UniProt P28066: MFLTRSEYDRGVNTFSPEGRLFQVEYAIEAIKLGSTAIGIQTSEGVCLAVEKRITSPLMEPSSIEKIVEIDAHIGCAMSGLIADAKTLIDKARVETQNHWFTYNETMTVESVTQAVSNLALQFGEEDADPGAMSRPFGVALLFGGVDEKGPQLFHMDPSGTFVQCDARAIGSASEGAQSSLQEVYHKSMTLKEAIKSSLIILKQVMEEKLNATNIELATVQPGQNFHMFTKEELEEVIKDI
UniProt P25788: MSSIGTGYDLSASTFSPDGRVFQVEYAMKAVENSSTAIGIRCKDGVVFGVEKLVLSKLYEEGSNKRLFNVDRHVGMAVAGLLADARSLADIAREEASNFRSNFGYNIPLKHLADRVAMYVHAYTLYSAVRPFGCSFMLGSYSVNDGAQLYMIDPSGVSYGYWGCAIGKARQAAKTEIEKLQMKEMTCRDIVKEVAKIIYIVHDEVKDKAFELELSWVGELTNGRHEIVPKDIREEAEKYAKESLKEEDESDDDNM
UniProt P25786: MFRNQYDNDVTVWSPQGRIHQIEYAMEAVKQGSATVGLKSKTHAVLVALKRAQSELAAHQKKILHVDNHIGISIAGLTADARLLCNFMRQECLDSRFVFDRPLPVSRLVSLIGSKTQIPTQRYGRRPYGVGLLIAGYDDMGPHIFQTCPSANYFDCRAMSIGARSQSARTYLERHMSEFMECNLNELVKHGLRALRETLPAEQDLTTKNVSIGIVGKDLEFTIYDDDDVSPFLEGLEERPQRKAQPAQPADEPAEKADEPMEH
UniProt O14818: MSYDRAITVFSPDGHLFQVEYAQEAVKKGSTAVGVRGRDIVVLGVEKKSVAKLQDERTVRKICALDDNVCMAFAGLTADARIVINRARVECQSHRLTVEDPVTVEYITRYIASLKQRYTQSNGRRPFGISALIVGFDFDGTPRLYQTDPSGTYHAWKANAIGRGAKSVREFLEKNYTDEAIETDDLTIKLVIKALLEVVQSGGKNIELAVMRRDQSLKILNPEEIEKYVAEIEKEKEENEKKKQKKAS
UniProt P25789: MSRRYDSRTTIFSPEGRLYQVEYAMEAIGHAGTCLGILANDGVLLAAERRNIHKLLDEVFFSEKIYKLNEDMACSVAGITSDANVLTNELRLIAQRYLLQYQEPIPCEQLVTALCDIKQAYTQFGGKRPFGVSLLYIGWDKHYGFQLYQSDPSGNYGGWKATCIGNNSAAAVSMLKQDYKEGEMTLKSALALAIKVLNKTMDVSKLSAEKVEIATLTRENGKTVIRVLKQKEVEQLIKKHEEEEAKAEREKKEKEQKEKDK


Legend:
[1] = target: proteasome maturation protein (POMP) (human) (UniProt Q9Y244); assay: cryo-EM structure; structure 3 (map 3): α-ring, PAC1/PAC2, POMP, β2–β4; same sample as structure 1 (β2-tag purification, SEC fractions C4–C7); both purified
[2] = target: proteasome maturation protein (POMP) (human) (UniProt Q9Y244); assay: cryo-EM structure; structure 5 (map 5, half-CP): α-ring, PAC1/PAC2, POMP, complete β-ring; same sample as structure 1 (β2-tag purification, SEC fractions C4–C7); both purified
[3] = target: proteasome maturation protein (POMP) (human) (UniProt Q9Y244); assay: cryo-EM structure; preholo 20S CP: two fused half-CPs with PAC1/PAC2, POMP and propeptides; β2-tag purification, SEC peak fraction; both purified
[4] = target: proteasome maturation protein (POMP) (human) (UniProt Q9Y244); assay: cryo-EM structure; structure 2 (map 2): α-ring, PAC1/PAC2, POMP, β2, β3; same sample as structure 1 (β2-tag purification, SEC fractions C4–C7); both purified
[5] = target: proteasome maturation protein (POMP) (human) (UniProt Q9Y244); assay: cryo-EM structure; structure 4 (map 4): α-ring, PAC1/PAC2, POMP, β2–β6; same sample as structure 1 (β2-tag purification, SEC fractions C4–C7); both purified
[6] = target: T1, proteasome assembly chaperone 4 (PAC4) (human); assay: cryo-EM structure; structure 1 (map 1): α-ring, PAC1–PAC4, POMP, β2; co-expressed in insect cells, purified by the twin-Strep tag on β2 and SEC (pooled fractions C4–C7; 25 mM HEPES pH 7.5, 150 mM NaCl, 1 mM dithiothreitol; 0.25 mM Fos-Choline-8 added); both purified
[7] = target: proteasome subunit α5 (PSMA5) (human) (UniProt P28066); assay: as above
[8] = target: proteasome maturation protein (POMP) (human) (UniProt Q9Y244); assay: as above
[9] = target: proteasome subunit α7 (PSMA3) (human) (UniProt P25788); assay: as above
[10] = target: proteasome subunit α6 (PSMA1) (human) (UniProt P25786); assay: as above
[11] = target: proteasome subunit α4 (PSMA7) (human) (UniProt O14818); assay: as above
[12] = target: proteasome subunit α3 (PSMA4) (human) (UniProt P25789); assay: as above

Row | binding [1] | binding [2] | binding [3] | binding [4] | binding [5] | binding [6] | binding [7] | binding [8] | binding [9] | binding [10] | binding [11] | binding [12] | Binder
1 | binds | binds | binds | binds | binds |  |  |  |  |  |  |  | proteasome assembly chaperone 1 (PAC1) (protein, UniProt O95456 1-288) MAATFFGEVVKAPCRAGTEDEEEEEEGRRETPEDREVRLQLARKREVRLLRRQTKTSLEVSLLEKYPCSKFIIAIGNNAVAFLSSFVMNSGVWEEVGCAKLWNEWCRTTDTTHLSSTEAFCVFYHLKSNPSVFLCQCSCYVAEDQQYQWLEKVFGSCPRKNMQITILTCRHVTDYKTSESTGSLPSPFLRALKTQNFKDSACCPLLEQPNIVHDLPAAVLSYCQVWKIPAILYLCYTDVMKLDLITVEAFKPILSTRSLKGLVKNIPQSTEILKKLMTTNEIQSNIYT
2 |  |  |  |  |  | binds | binds | binds |  |  |  |  | proteasome assembly chaperone 3 (PAC3) (protein, UniProt Q9BT73 1-122) MEDTPLVISKQKTEVVCGVPTQVVCTAFSSHILVVVTQFGKMGTLVSLEPSSVASDVSKPVLTTKVLLGQDEPLIHVFAKNLVAFVSQEAGNRAVLLAVAVKDKSMEGLKALREVIRVCQVW
3 |  |  |  |  |  |  | binds | binds | binds | binds | binds | binds | PAC3–PAC4 heterodimer (complex, UniProt Q9BT73 1-122; Q5JS54 1-123) chain 1: MEDTPLVISKQKTEVVCGVPTQVVCTAFSSHILVVVTQFGKMGTLVSLEPSSVASDVSKPVLTTKVLLGQDEPLIHVFAKNLVAFVSQEAGNRAVLLAVAVKDKSMEGLKALREVIRVCQVW chain 2: MEGLVVAAGGDVSLHNFSARLWEQLVHFHVMRLTDSLFLWVGATPHLRNLAVAMCSRYDSIPVSTSLLGDTSDTTSTGLAQRLARKTNKQVFVSYNLQNTDSNFALLVENRIKEEMEAFPEKF
4 |  |  |  |  |  |  | binds | binds |  |  | binds |  | proteasome assembly chaperone 4 (PAC4) (protein, UniProt Q5JS54 1-123) MEGLVVAAGGDVSLHNFSARLWEQLVHFHVMRLTDSLFLWVGATPHLRNLAVAMCSRYDSIPVSTSLLGDTSDTTSTGLAQRLARKTNKQVFVSYNLQNTDSNFALLVENRIKEEMEAFPEKF

Reference: PMC11327110
